This passage reports singlet oxygen yield results from patent US20230374043A1, “Hexadeca Ammonium-Modified Phthalocyanine and Preparation Method and Use Thereof as Photodynamic Drug” (Fuzhou University, priority 2020, published 2023).

This data set in a line: singlet oxygen yield in water after photosensitization. In kind it is physicochemical.
Regarding `C[N+](C)(C)c1cccc(Oc2cc3c(cc2Oc2cccc([N+](C)(C)C)c2)C2=[N+]4C3=Nc3c5cc(Oc6cccc([N+](C)(C)C)c6)c(Oc6cccc([N+](C)(C)C)c6)cc5c5[n]3[Zn]43[n]4c(c6cc(Oc7cccc([N+](C)(C)C)c7)c(Oc7cccc([N+](C)(C)C)c7)cc6c4=NC4=[N+]3C(=N5)c3cc(Oc5cccc([N+](C)(C)C)c5)c(Oc5cccc([N+](C)(C)C)c5)cc34)=N2)c1` [Example 6, 2,3,9,10,16,17,23,24-octa[3-(trimethylammonium)phenoxy]zinc phthalocyanine octaiodate], the singlet oxygen yield was 0.14. “hexadeca-[3-(dimethylammonium)phenoxy]zinc phthalocyanine hexadecaiodate [Example 8]”: the singlet oxygen yield is 0.44. The result for `C[N+](C)(C)c1cccc(Oc2c(Oc3cccc([N+](C)(C)C)c3)c(Oc3cccc([N+](C)(C)C)c3)c3c(c2Oc2cccc([N+](C)(C)C)c2)C2=Nc4c5ccccc5c5[n]4[Zn@]46[n]7c(c8ccccc8c7=NC3=[N+]24)=NC2=[N+]6C(=N5)c3ccccc32)c1` [Example 4] reads 0.19. Regarding `C[N+](C)(C)c1cccc(Oc2cc3c(cc2Oc2cccc([N+](C)(C)C)c2)C2=[N+]4C3=Nc3c5ccccc5c5[n]3[Zn@]43[n]4c(c6ccccc6c4=N2)=NC2=[N+]3C(=N5)c3ccccc32)c1` [Example 2, 2,3-bis[3-(trimethylammonium)phenoxy]zinc phthalocyanine diiodate], the singlet oxygen yield turned out to be 0.42.
